For three molecules, binding results are on record in article PMC11335214.

The target in one experiment is T1, HA-tagged Lhx3 (UniProt P50481).
T1 sequence: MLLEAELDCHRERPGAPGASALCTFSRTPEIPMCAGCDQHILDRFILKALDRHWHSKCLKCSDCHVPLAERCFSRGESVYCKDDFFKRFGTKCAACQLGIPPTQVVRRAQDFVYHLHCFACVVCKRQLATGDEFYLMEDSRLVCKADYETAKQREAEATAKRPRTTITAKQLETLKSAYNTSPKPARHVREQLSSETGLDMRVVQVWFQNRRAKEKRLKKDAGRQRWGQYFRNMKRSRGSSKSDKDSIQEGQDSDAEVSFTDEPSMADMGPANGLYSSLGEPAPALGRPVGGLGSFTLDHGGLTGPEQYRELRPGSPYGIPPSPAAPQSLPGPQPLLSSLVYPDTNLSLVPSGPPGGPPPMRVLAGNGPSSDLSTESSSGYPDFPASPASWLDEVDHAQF
The experiment is described as follows: co-IP; P19 cells transfected with pCS2-HA-Lhx3 or pCS2-HA-Lhx4 with or without pCS2-Myc-Isl1 or pCS2-Myc-Isl2 (500 ng each), lysed after 48 h in Tris-HCl 20 mM pH 7.5, 120 mM NaCl, 0.5% NP40, 10% glycerol; anti-HA antibody overnight at 4 °C, protein G-agarose beads; immunoblot with anti-Myc, anti-HA and anti-CLIM1/2. (In western blotting, separated proteins are transferred to a membrane and probed.)

Another experiment addresses T2, HA-tagged Lhx4 (UniProt P53776).
T2 sequence: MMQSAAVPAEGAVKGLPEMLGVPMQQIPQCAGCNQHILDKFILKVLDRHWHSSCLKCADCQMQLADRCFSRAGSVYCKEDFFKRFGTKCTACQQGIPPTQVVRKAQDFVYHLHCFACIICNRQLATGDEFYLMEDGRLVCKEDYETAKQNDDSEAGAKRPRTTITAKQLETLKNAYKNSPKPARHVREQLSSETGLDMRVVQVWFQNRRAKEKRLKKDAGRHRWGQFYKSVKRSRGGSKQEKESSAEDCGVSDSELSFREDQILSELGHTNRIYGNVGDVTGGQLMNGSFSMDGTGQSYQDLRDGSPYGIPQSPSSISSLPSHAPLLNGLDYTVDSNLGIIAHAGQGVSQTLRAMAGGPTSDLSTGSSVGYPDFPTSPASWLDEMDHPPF
The description is as above.

These are yes or no findings as the source states them, for the method shown. Binding seen in cells or lysates may run through a third protein. Some entries that bind do so weakly or less than the wild type. Where a sequence is shown, tags or fusion partners need not be part of it.

B1: Myc-tagged Isl2 (protein, UniProt Q9CXV0 1-359)
chain: MVDIIFHYPFLGAMGDHSKKKPGTAMCVGCGSQIHDQFILRVSPDLEWHAACLKCAECSQYLDETCTCFVRDGKTYCKRDYVRLFGIKCAQCQVGFSSSDLVMRARDSVYHIECFRCSVCSRQLLPGDEFSLREHELLCRADHGLLLERAAAGSPRSPGPLPGARGLHLPDAGSGRQPSLRTHVHKQAEKTTRVRTVLNEKQLHTLRTCYAANPRPDALMKEQLVEMTGLSPRVIRVWFQNKRCKDKKKSILMKQLQQQQHSDKASLQGLTGTPLVAGSPIRHENAVQGSAVEVQTYQPPWKALSEFALQSDLDQPAFQQLVSFSESGSLGNSSGSDVTSLSSQLPDTPNSMVPSPVET
For the molecule B1, the binding entry in the experiment with HA-tagged Lhx3 and with HA-tagged Lhx4 was “binds” in each case.

B2: nuclear LIM interactor (NLI) (protein, UniProt P70662 1-411)
chain: MSVGCACPGCSSKSFKLYSPKEPPNGNAFPPFHPGTMLDRDVGPTPMYPPTYLEPGIGRHTPYGNQTDYRIFELNKRLQNWTEECDNLWWDAFTTEFFEDDAMLTITFCLEDGPKRYTIGRTLIPRYFRSIFEGGATELYYVLKHPKEAFHSNFVSLDCDQGSMVTQHGKPMFTQVCVEGRLYLEFMFDDMMRIKTWHFSIRQHRELIPRSILAMHAQDPQMLDQLSKNITRCGLSNSTLNYLRLCVILEPMQELMSRHKTYSLSPRDCLKTCLFQKWQRMVAPPAEPARQQPSKRRKRKMSGGSTMSSGGGNTNNSNSKKKSPASTFALSSQVPDVMVVGEPTLMGGEFGDEDERLITRLENTQFDAANGIDDEDSFNNSPALGANSPWNSKPPSSQESKSENPTSQASQ
As to B2, the binding result with HA-tagged Lhx3 and with HA-tagged Lhx4 was “binds” each time.

B3: Myc-tagged Isl1 (protein, UniProt P61372 1-349)
chain: MGDMGDPPKKKRLISLCVGCGNQIHDQYILRVSPDLEWHAACLKCAECNQYLDESCTCFVRDGKTYCKRDYIRLYGIKCAKCSIGFSKNDFVMRARSKVYHIECFRCVACSRQLIPGDEFALREDGLFCRADHDVVERASLGAGDPLSPLHPARPLQMAAEPISARQPALRPHVHKQPEKTTRVRTVLNEKQLHTLRTCYAANPRPDALMKEQLVEMTGLSPRVIRVWFQNKRCKDKKRSIMMKQLQQQQPNDKTNIQGMTGTPMVAASPERHDGGLQANPVEVQSYQPPWKVLSDFALQSDIDQPAFQQLVNFSEGGPGSNSTGSEVASMSSQLPDTPNSMVASPIEA
For the molecule B3, the binding result with HA-tagged Lhx3 and with HA-tagged Lhx4 was “binds” in each case.
